According to US8772446B2, “Bifunctional chelating agents” (Nordion (Canada) Inc., priority 2010, dated 2014):

How the values were obtained:
[1] = Competition for chelation of ^67Ga between H2dedpa and NOTA; conditions: 10^−4 M each, pH 4.5, 10 minutes, room temperature
[2] = Transchelation of Ga from NOTA by dedpa; conditions: for Complex found after adding equivalent dedpa to pre-formed ^67Ga-NOTA: room temperature

Row | Structure (SMILES) | Share of ^67Ga coordinated in direct competition of equal concentrations of NOTA and H2dedpa ([1]; listed as (dedpa)^2−) | Extraction of gallium from the NOTA complex (in words) ([2]; challenge experiment) | Share of ^67Ga coordinated in direct competition of equal concentrations of NOTA and H2dedpa [1] | Complex found after adding equivalent dedpa to pre-formed ^67Ga-NOTA ([2]; 10 minutes) | Ga-NOTA converted to Ga-dedpa ([2]; pre-formed Ga-NOTA, equivalent dedpa, 10 minutes)
1 | O=C(O)c1cccc(CNCCNCc2cccc(C(=O)O)n2)n1 [Compound H2dedpa] | over 96% | capable of extracting gallium |  |  | 
2 | O=C([O-])CN1CCN(CC(=O)[O-])CCN(CC(=O)[O-])CC1.[Ga+3] [Ga-NOTA, reference compound] |  |  | 0.2% | 0.2% | About 10%
3 | O=C(O)CN1CCN(CC(=O)O)CCN(CC(=O)O)CC1 [NOTA, 1,4,7-triazacyclononane-1,4,7-triacetic acid, reference compound] |  |  | less than 1% |  | 
4 | O=C(O)c1cccc(CNCCNCc2cccc(C(=O)O)n2)n1 [^67Ga(dedpa)^+, metal not drawn] |  |  | Over 98% | Over 98% | 
